PubChem BioAssay AID720505 | Drosophila RNAi Screening Center – 2013
In all, the deposit lists about 20,000 reagents; shown is an unselected part of those with a known target gene and a result. Over the whole deposit, about 2,100 (10%) are marked active. 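Raw plate signals without normalisation; calls rest on control-based scores that were not deposited; replicate 2 separates called from uncalled poorly.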 Unmarked entries are inactive. Reagents against one gene are numbered here. Names joined by + are all predicted targets of the reagent. The record does not give: the amount of reagent, the time to read-out.

Purpose: 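Genes needed for store-operated calcium entry in fly cells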 (primary screen)
Cells: Drosophila S2R+ cells
Reagent: long dsRNA against Drosophila genes
Challenge: thapsigargin (2 µM) in calcium-free buffer to empty internal stores, then 2 mM calcium added back
Detection: 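Stores emptied by 2 µM thapsigargin without calcium, then 2 mM calcium re-added; fluo-4 fluorescence followed by FLIPR in 384-well plates, per-well averaged endpoint, raw; two screen passes, some wells retested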
Reading the numbers: calcium signal and retest calcium signal: higher = more calcium entry after store depletion
Call rule: 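About 1500 genes called as lowering calcium entry, by varying amounts, judged against per-plate control wells with STIM1 as positive and Rho1 as negative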
Calls: active = called as lowering calcium entry; inactive = not called

predicted target	dsRNA no.	calcium signal, replicate 1	calcium signal, replicate 2	retest calcium signal, replicate 1	retest calcium signal, replicate 2
CG7730	1	65.2 (active)	88.3		
CG34200	1	104	96.9		
CG13023	1	97.2	202		
CG6005	1	159	188		
CG30087	1	204	115		
CG15546	1	149	120		
CG15546	2	116	89.5		
yellow-g2	1	60.7 (active)	75.3		
CG7781	1	159	175		
CG34188	1	79.3	105		
CG13196	1	136	158		
Ir100a	1	68.6	99.2	113	102
CG42266	1	147	105		
CG42266	2	103	219		
CadN	1	127	147		
scrt	1	73.4	94		
scrt	2	144	137		
CG42813	1	105	142		
dbe	1	88.9	164		
Vha100-1	1	64.9 (active)	66.5		
Tsp86D	1	153	73.9		
CG7772	1	176	107		
l(2)41Ab	1	109	9425		
CG6843	1	84	135		
CG7368	1	83.1	102	6913	113
CG7368	2	107	92		
CG7457	1	71.2	85.9		
Trf5	1	161	145		
l(2)k09848	1	164	115		
IRSp53	1	86.5	101		
CG15534	1	126	140		
CG8837	1	113	107		
Cpn	1	149	109		
Amun	1	91.8	80.9		
CG4049	1	106	130		
Rrp42	1	101	163		
Cyp4e2	1	194	127		
Atg6	1	128	293		
CG42675	1	102	102		
CG42675	2	93.9	147		
trc	1	77.9	108		
CG9095	1	99	144		
Cyp6a9	1	141	194		
VhaAC39-1	1	118	142		
CG31999	1	122	168		
CG31999	2	128	178		
Ir21a + asRNA:CR43609	1	157	176		
CG13405	1	102	101		
Rox8	1	259	177		
lncRNA:CR31647	1	109	210		
Rh4 + sina	1	121	88.9		
Ugt35E1	1	64.8 (active)	124		
Ugt317A1	1	103	135		
CG30183	1	122	208		
CG30183	2	142	165		
Ercc1	1	130	118		
CG31445	1	83.1	132		
CG14480	1	185	141		
CG11333	1	69.1	106		
tex	1	89	132		
apt	1	101	90.5		
apt	2	104	125		
CG5348	1	187	187		
Raf	1	58.3 (active)	107		
Raf	2	115	139		
Tango6	1	81.2	91.6		
Pp1alpha-96A	1	212	143		
Pp1alpha-96A	2	104	154		
CG34178 + CG34177	1	110	109		
CG17002	1	194	106		
bin	1	74.9	72.8		
Paf-AHalpha	1	97	124		
BthD	1	69.7 (active)	97.8		
CG31875	1	63.7	136		
CG6891	1	142	133		
CG15576	1	152	106		
Mst57Da	1	153	116		
CG34326 (retired record)	1	76.4	82.7		
cuff	1	76.2	151		
sv	1	95.1	144		
ITP	1	148	245		
CG13083	1	161	76.9		
Edg84A	1	177	147		

Reagents listed so far marked active, once more:
predicted target	dsRNA no.	calcium signal, replicate 1	calcium signal, replicate 2	retest calcium signal, replicate 1	retest calcium signal, replicate 2
CG7730	1	65.2 (active)	88.3		
yellow-g2	1	60.7 (active)	75.3		
Vha100-1	1	64.9 (active)	66.5		
Ugt35E1	1	64.8 (active)	124		
Raf	1	58.3 (active)	107		
BthD	1	69.7 (active)	97.8		
